Experimental data taken from PMC11300334.
These are yes or no findings as the source states them, for the method shown.

Protein sequences, listed by entry. Tags and fused reporters are not part of them.
UniProt A1TLI0: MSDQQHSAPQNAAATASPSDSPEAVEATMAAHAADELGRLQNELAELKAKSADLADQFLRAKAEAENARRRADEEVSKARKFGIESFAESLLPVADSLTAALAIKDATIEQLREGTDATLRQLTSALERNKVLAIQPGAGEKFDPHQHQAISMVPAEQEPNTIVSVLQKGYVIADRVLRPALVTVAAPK

Target: ClpA of Paracidovorax citrulli, bacterial two-hybrid fusion (pBT-ClpA) (Paracidovorax citrulli)
Experiment: two-hybrid; bacterial two-hybrid in E. coli XL1-Blue MRF' Kan; ClpA in pBT, targets in pTRG (legend and Table 1); growth on selective minimal medium with 5 mM 3-amino-1,2,4-triazole and streptomycin, 48 h at 28°C

“GrpE of Paracidovorax citrulli, bacterial two-hybrid fusion (pTRG-GrpE) (from UniProt A1TLI0 1-189)” was tested, and the binding was “no binding”.
